Assay results from the supplement of paper PMC6078165.

Test system: MDAMB468
Test: relative JC-1 red fluorescence (viability) vs pre-drug, coculture with fibroblast (fraction); higher = more viable cancer cells
Conditions: 1 µM
Protocol: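 JC-1 labelled TNBC cells cocultured 1:1 (1,500 cells each) with CellTrace Violet stained primary or stromal fibroblasts in 384-well plates in FluoroBrite medium, treated with one of 42 anticancer drugs at 0.1, 1, 10 or 100 uM. JC-1 red fluorescence (mitochondrial integrity in cancer cells only) was read by plate reader every 8 h for 72 h. Values are normalised to each well's pre-drug value. The stock of one drug was tenfold lower, so its dose labels may be too high.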

C#Cc1cccc(Nc2ncnc3cc(OCCOC)c(OCCOC)cc23)c1 [Erlotinib]
relative JC-1 red fluorescence
Conditions	8 h	16 h	24 h	32 h	40 h	48 h	56 h	64 h	72 h
coculture fibroblast: C12385	0.885	0.845	0.8161	0.7427	0.697	0.68	0.641	0.617	0.598
coculture fibroblast: H6013	0.865	0.868	0.827	0.827	0.829	0.841	0.826	0.815	0.767
coculture fibroblast: H6019	0.822	0.8129	0.7867	0.737	0.704	0.692	0.646	0.609	0.584
coculture fibroblast: H6076	0.887	0.8876	0.863	0.874	0.808	0.8194	0.8	0.793	0.829
coculture fibroblast: H6231	0.84	0.862	0.828	0.837	0.773	0.768	0.725	0.704	0.714
coculture fibroblast: HADF	0.901	0.87941	0.82312	0.819	0.761	0.749	0.7168	0.7087	0.6803
coculture fibroblast: HCFa	0.8434	0.8424	0.80276	0.778	0.733	0.73	0.689	0.658	0.618
coculture fibroblast: HCPF	0.8487	0.93	0.863	0.863	0.8	0.775	0.73	0.723	0.7154
coculture fibroblast: HHSteC	0.8878	0.873	0.843	0.813	0.795	0.791	0.743	0.714	0.655
coculture fibroblast: HMF	0.834	0.907	0.87	0.847	0.794	0.779	0.75	0.743	0.73
coculture fibroblast: HPFa	0.9439	0.8935	0.8586	0.817	0.783	0.777	0.7055	0.6765	0.595
coculture fibroblast: HUF	0.8983	0.834	0.806	0.74	0.693	0.673	0.633	0.618	0.601
coculture fibroblast: Hs5	0.963	0.94	0.893	0.862	0.808	0.78	0.764	0.7326	0.7482
coculture fibroblast: Hs27A	0.853	0.8625	0.791	0.793	0.74	0.733	0.691	0.672	0.6341
coculture fibroblast: Hs343T	0.841	0.905	0.8511	0.826	0.768	0.752	0.717	0.703	0.693
coculture fibroblast: WS1	0.872	0.831	0.794	0.7358	0.681	0.658	0.631	0.605	0.591

The reference is the same well before dosing, and untreated signal decays as well.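 Fibroblast labels name human fibroblasts: mostly primary ones from tissues such as uterus (C12385, HUF), lung (H6013), bone (Hs27A), adrenal (HADF) and skin (WS1), plus mammary HMF and breast cancer-associated Hs343T. The cancer cells are basal-like or mesenchymal-like triple-negative breast cancer lines. The paper calls a changed response a hit when it shifts by more than 3x the replicate standard deviation. The tissue of the other fibroblasts is not given here.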
